Values quoted from earlier work, collected in patent US20250241948A1, “Engineered Extracellular Vesicle Delivery Systems and Uses Thereof” (The Texas A&M University System, priority 2020, published 2025).
At least one structure is not confirmed: it was looked up by name or label, or the drawing left a doubt.

Conditions: cited from earlier work

## CCCCCCCC/C=C\CCCCCCCC(=O)O[C@H](COC(=O)CCCCCCCCCCCCCCC)COP(=O)(O)OCC(O)CO (stereo partly shown) [POPG, 1-Palmitoyl-2-oleoyl-sn-glycero-3-phosphoglycerol]
  Transition Temp: 2 °C
